# In PubChem BioAssay AID540276 (National Center for Advancing Translational Sciences (NCATS), 2011):
# The campaign covered roughly 300,000 compounds. About 5,400 (1.8%) were called active. Inconclusive results, whose numbers are uncertain, are shown with a selection of clear calls. Calls follow the shape of the full dose curve; tested in HEK293 cells. Potencies of inconclusive entries are doubtful fits and often do not repeat.
# Test: qHTS for inhibitors of binding or entry into cells for Marburg Virus
# Details: Marburg virus pseudotyped entry inhibition, cell reporter; activity change, negative = inhibition: at 37.8 µM (top of the series) unless noted
# % is scaled to controls: 0 for no effect and ±100 for the full control effect; potency is read from the fitted curve at half-maximal effect.
Compound,Potency,"activity change, negative = inhibition"
COc1ccc(N(CC(=O)NC2CCCCC2)C(=O)c2ccc(C)s2)cc1OC,"inconclusive: 1.26 µM [inhibitor, full curve]",
COc1ccc(C2CC(c3cccs3)=NN2c2ccc(C=O)cc2)cc1 (stereo not given),"inconclusive: 7.08 µM [inhibitor, partial curve]",
CCn1c(CNC(=O)c2cccc(C)c2)nnc1SCC(=O)NC1CCCC1,"inconclusive: 0.501 µM [activator, full curve, poor fit]",
O=S(=O)(c1cccs1)N1CCN(c2ccc(O)cc2)CC1,"inconclusive: 7.08 µM [inhibitor, partial curve, poor fit]",
COc1ccc(NC(=O)/C(Cl)=C(/Cl)S(=O)(=O)Cc2ccccc2)cn1,"inconclusive: 3.98 µM [inhibitor, full curve, poor fit]",
O=C(COc1ccccc1N1C(=O)c2ccccc2C1=O)c1ccc(Cl)cc1,,inactive: -12.4%
COC(=O)C1=C(C)OC(N)=C(C#N)C1c1ccco1 (stereo not given),,inactive: 8.03%
CC1(C)C2CCC(C2)C1C/C=N/NC(N)=S (stereo not given),"inconclusive: 6.31 µM [inhibitor, single point]",
CC(C)C(c1nnnn1Cc1ccc(F)cc1)N1CCN(Cc2ccc3c(c2)OCO3)CC1 (stereo not given),active: 12.6 µM,
CCOC(=O)CC(c1ccc([N+](=O)[O-])cc1)n1c(C)ccc1C (stereo not given),"inconclusive: 8.91 µM [inhibitor, partial curve, poor fit]",
N#CC1=C(N)C2=CCCC[C@H]2[C@H](c2cccc(F)c2)C1(C#N)C#N,"inconclusive: 5.62 µM [activator, single point]",
CCCCC(=O)Nc1cccc(NC(=O)c2ccc3c(c2)OCO3)c1,,inactive: -5.02%
CCN(CC)S(=O)(=O)c1ccc(-c2nnc(SCC(=O)N3CCOCC3)o2)cc1,inactive,
C/C(CC(=O)Nc1ccccn1)=N\NC(=O)c1ccccc1O,"inconclusive: 1.58 µM [inhibitor, partial curve, poor fit]",
COc1cccc(NC(=S)N2CCCC2c2ccc(OC)c(OC)c2)c1 (stereo not given),"inconclusive: 10 µM [activator, single point]",
CCOc1cc(-c2nnc(-c3ccco3)o2)cc(OCC)c1OCC,,inactive: -27.6%
O=S(=O)(c1ccc(-c2n[nH]c(=S)o2)cc1)N1CCCCC1,"inconclusive: 5.62 µM [activator, single point]",
COc1ccccc1C(=O)Nc1nnc(CCc2ccccc2)s1,"inconclusive: 3.55 µM [inhibitor, full curve]",
O=C(Nc1ccc2c(c1)OCCO2)c1cc(-c2ccccc2)nc2ccccc12,"inconclusive: 32.6 µM [inhibitor, single point]",
N#Cc1c(Nc2ccccc2Cl)s[nH]c1=O,,inactive: 4.63% [at 46.1 µM]
CC(=O)N1CCN(c2ccc(NC(=O)c3ccc([N+](=O)[O-])cc3Cl)cc2)CC1,"inconclusive: 20 µM [activator, single point]",
CN(Cc1ccco1)C(=O)Cn1c(=O)oc2cc(S(=O)(=O)NCc3ccccc3)ccc21,inactive,
CCc1ccc(N(CC(=O)NCCc2ccccc2)C(=O)CCC(=O)Nc2ccccn2)cc1,"inconclusive: 29.1 µM [inhibitor, single point]",
COCCn1c(=NC(=O)/C=C/c2ccccc2Cl)sc2cc(NC(C)=O)ccc21,"inconclusive: 11.2 µM [inhibitor, single point]",

# Part of the list above in order of formula weight, descending.
Compound,Potency,"activity change, negative = inhibition"
CCc1ccc(N(CC(=O)NCCc2ccccc2)C(=O)CCC(=O)Nc2ccccn2)cc1,"inconclusive: 29.1 µM [inhibitor, single point]",
CCCCC(=O)Nc1cccc(NC(=O)c2ccc3c(c2)OCO3)c1,,inactive: -5.02%
COC(=O)C1=C(C)OC(N)=C(C#N)C1c1ccco1 (stereo not given),,inactive: 8.03%

# Additional records:

Compound,Potency,"activity change, negative = inhibition"
COc1ccc([N+](=O)[O-])cc1NC(=O)c1cn(-c2ccc(Cl)cc2)c(=O)c2ccccc12,"inconclusive: 4.11 µM [inhibitor, partial curve, poor fit]",
COC(=O)c1nnn(-c2nonc2N)c1CSc1nc2ccccc2o1,"inconclusive: 1.3 µM [inhibitor, full curve]",
CN(c1ccccc1)S(=O)(=O)c1ccc2ccccc2c1,"inconclusive: 12.6 µM [inhibitor, partial curve, poor fit]",
O=C(Cc1ccc(F)cc1)Nc1ccc(F)c([N+](=O)[O-])c1,,inactive: 12.4% [at 46.1 µM]
CCc1nnc(NC(=O)CSc2nc3cc4c(cc3cc2C)OCCO4)s1,"inconclusive: 6.51 µM [inhibitor, single point]",
COc1ccc(S(=O)(=O)Nc2ccccc2C(=O)Nc2nc(-c3ccc(F)cc3)cs2)cc1OC,"inconclusive: 29.1 µM [inhibitor, single point]",
O=C(Nc1nnc(Cc2ccccc2)s1)c1cccs1,,inactive: 6.5%
CCN(CC)C(=O)Cn1cc(C(=O)C(=O)N2CCCc3ccccc32)c2ccccc21,"inconclusive: 8.91 µM [inhibitor, partial curve, poor fit]",
Cc1ccc(-n2cc(C(=O)c3ccc(F)cc3)nn2)cc1Cl,"inconclusive: 0.0891 µM [activator, full curve, poor fit]",
CCCCOc1ccc(N2CC(C(=O)NCCc3ccc(OC)c(OC)c3)CC2=O)cc1 (stereo not given),"inconclusive: 12.6 µM [activator, single point]",
COC(=O)c1ccc(N2CCC(C)CC2)c(N)c1,"inconclusive: 3.66 µM [activator, single point]",
Cc1cc(Cl)c2oc(C(=O)N(CCO)Cc3ccccc3)c(C)c2c1,,inactive: -0.983% [at 46.1 µM]
CCOc1cccc(CN2CCCC(C(=O)c3cc(Cl)ccc3OC)C2)c1O (stereo not given),"inconclusive: 12.6 µM [inhibitor, single point]",
CCN1CCC(Nc2ccnc3cc(Cl)ccc23)CC1,active: 12.6 µM,
Cc1ccc(NC(=O)C(OC(=O)c2ccc(F)cc2)c2ccccc2)cc1Cl (stereo not given),"inconclusive: 0.447 µM [activator, partial curve, poor fit]",
CC1(C)SC(=S)N(NC(=O)Nc2ccccc2)C1N(O)C(=O)Nc1ccccc1 (stereo not given),"inconclusive: 0.146 µM [inhibitor, full curve, poor fit]",
Cc1c(Cl)cccc1NC(=O)C1CCCN(C(=O)c2cnn(-c3ccccc3)c2-n2cccc2)C1 (stereo not given),"inconclusive: 14.1 µM [inhibitor, single point]",
CCOC(=O)c1c(NC(=O)CN2C(=O)NC3(CCCCC3C)C2=O)sc(C)c1CC (stereo not given),"inconclusive: 17.8 µM [inhibitor, single point]",
CN(C(=O)Cn1c(Cl)nc2c1c(=O)n(C)c(=O)n2C)C1CCS(=O)(=O)C1 (stereo not given),"inconclusive: 6.31 µM [activator, partial curve, poor fit]",
O=C(Nc1nc2ccc(F)cc2s1)c1nc(SCc2ccccc2F)ncc1Cl,"inconclusive: 5.01 µM [inhibitor, single point]",
Cc1cccc2sc(N(CCCN(C)C)C(=O)c3ccc(S(=O)(=O)N4CCc5ccccc5C4)cc3)nc12,"inconclusive: 14.1 µM [inhibitor, single point]",
C=CCOC(=O)N[C@H](c1cccc(OC)c1)[C@H](C)C=CCC(=O)OC,,inactive: 14.5% [at 14.2 µM]
Nc1ccc(-c2nc3ccc(C(=O)O)cc3s2)cc1,active: 0.461 µM,
Cc1[nH]c(=O)[nH]c(=O)c1NC(=O)CSc1ncccc1-c1nc2ccccc2[nH]1,,inactive: 1.38%

Compound,Potency,"activity change, negative = inhibition"
CCn1ccnc1CN(C)Cc1cn(-c2ccccc2)nc1-c1ccc(OC)cc1F,active: 10 µM,
COc1ccc(N2CCCC2)c(NC(=O)c2ccc(Br)o2)c1,,inactive: 1.56% [at 46.1 µM]
COc1ccc(S(=O)(=O)Nc2ccc(Oc3ncccn3)c(Cl)c2)cc1,"inconclusive: 20 µM [inhibitor, single point]",
O=C(CCNS(=O)(=O)c1cccc2nsnc12)N1CCN(c2ccccn2)CC1,,inactive: 0%
CC(C)(C)c1ccccc1OCCCCCn1ccnc1,"inconclusive: 1.26 µM [inhibitor, full curve, poor fit]",
COc1ccc2nc(NC(=O)C34CC5CC(CC(NC(C)=O)(C5)C3)C4)sc2c1,"inconclusive: 0.794 µM [activator, full curve]",
Cc1ccc(C)c(NCC(=O)c2ccc(Cl)cc2)c1,,inactive: -12.7% [at 46.1 µM]
CCN(CC)C(=O)C1=C(C)NC(=S)NC1c1cn(-c2ccccc2)nc1-c1ccc(Cl)cc1 (stereo not given),"inconclusive: 32.6 µM [inhibitor, single point]",
CC(=O)C(Cc1ccccc1)NC(=O)CN1CCN(Cc2ccccc2)CC1 (stereo not given),,inactive: -5.02% [at 46.1 µM]
Cc1ccc(NS(=O)(=O)c2ccc(C)c(C(=O)Nc3ccc(S(=O)(=O)Nc4onc(C)c4C)cc3)c2)cc1,"inconclusive: 0.316 µM [inhibitor, partial curve, poor fit]",
COc1ccc(C(=O)Nc2ccccc2-c2nnn(CC(N)=O)n2)cc1,,inactive: -4.47% [at 46.1 µM]
CCSc1nnc(NC(=O)C2CC(=O)N(Cc3ccc(C)cc3)C2)s1 (stereo not given),,inactive: 11.9% [at 46.1 µM]
Cc1ccccc1NC(=O)CN1CCN(C)CC1,"inconclusive: 1 µM [activator, full curve, poor fit]",
Cn1c(=O)c(-c2ccccc2)nn2c3ccccc3nc12,,inactive: 23.5% [at 46.1 µM]
CC1(CCc2ccccc2)NC(=O)N(CC(=O)Nc2ccccc2C#N)C1=O (stereo not given),,inactive: 15%
Cc1cccc(-n2[nH]c3c4c(ccc3c2=O)C(=O)c2ccccc2C4=O)c1,,inactive: -12.6%
COc1ccc(-c2nc(-c3ccccc3)c(NC(C)C)o2)cc1,"inconclusive: 0.0266 µM [activator, full curve, poor fit]",
COc1cccc(NC(=O)C2C3CC4OC(=O)C2C4C3)c1 (stereo not given),"inconclusive: 10 µM [activator, single point]",
CN(C)c1ccc(/C=N/NC(=O)c2nonc2N)cc1[N+](=O)[O-],,inactive: -2.74% [at 46.1 µM]
Cc1cc2c(N)cccc2nn1,,inactive: 7.12%
CC(C)(C)C(=O)/C=c1\[nH]c(=O)/c(=C\c2ccccc2F)s1,,inactive: -17.4% [at 46.1 µM]
O=C(OCC(=O)N(C1CCCCC1)C1CCCCC1)c1ccco1,"inconclusive: 9.2 µM [inhibitor, partial curve, poor fit]",
